# Primary screen of a compound library

The chains behind the UniProt entries cited, without tags or fusion partners. Residues count along the entry.
UniProt P9WPC5, whole entry: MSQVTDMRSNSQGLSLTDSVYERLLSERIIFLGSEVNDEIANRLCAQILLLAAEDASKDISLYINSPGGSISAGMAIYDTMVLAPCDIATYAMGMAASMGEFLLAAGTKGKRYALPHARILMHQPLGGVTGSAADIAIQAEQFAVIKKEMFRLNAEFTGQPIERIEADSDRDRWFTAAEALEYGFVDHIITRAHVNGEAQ
UniProt P9WPC3, whole entry partner: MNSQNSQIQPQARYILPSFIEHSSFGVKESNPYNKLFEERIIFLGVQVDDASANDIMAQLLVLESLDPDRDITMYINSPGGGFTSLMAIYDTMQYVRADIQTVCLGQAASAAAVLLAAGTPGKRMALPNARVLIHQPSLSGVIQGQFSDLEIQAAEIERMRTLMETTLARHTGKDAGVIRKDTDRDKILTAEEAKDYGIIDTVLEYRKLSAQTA
UniProt P9WNZ1, whole entry: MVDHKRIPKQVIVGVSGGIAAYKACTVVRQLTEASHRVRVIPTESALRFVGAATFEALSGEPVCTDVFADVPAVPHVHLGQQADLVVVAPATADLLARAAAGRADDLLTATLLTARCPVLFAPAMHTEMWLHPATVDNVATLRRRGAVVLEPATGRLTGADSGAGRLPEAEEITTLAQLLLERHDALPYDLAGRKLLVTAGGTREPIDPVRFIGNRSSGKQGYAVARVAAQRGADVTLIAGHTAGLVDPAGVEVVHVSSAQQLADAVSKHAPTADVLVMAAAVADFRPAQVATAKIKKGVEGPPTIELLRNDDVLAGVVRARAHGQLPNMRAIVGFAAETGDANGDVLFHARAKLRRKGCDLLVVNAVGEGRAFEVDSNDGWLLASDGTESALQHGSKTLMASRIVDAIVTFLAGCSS
UniProt Q8IDJ8, 1-583: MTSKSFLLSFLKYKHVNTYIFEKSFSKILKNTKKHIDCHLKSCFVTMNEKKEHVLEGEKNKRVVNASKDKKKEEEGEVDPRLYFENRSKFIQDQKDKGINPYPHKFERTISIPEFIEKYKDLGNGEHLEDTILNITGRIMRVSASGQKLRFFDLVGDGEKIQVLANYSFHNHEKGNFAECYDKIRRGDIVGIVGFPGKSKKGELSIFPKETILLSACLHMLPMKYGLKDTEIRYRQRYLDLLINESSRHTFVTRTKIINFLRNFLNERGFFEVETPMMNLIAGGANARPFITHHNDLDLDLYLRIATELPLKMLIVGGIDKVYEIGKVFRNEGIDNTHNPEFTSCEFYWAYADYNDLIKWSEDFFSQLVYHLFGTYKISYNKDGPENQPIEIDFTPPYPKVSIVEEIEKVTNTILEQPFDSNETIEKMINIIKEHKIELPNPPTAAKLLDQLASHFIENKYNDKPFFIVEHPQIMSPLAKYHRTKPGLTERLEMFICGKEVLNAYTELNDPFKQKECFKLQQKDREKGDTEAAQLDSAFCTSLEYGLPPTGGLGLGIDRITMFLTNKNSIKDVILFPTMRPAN

Source: ChEMBL document CHEMBL3988442, “University of Dundee, Small-Polar-MMV Screening Library” (2021).

Results are given as percent effect. The controls that fix the scale are not given in the record; negative values are as filed. This is an unselected part of the compounds tested.

ClpP1P2: 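Protease assay of ClpP1P2, read by the AMC dye that it sets free. Target: ClpP1P2, Mycobacterium tuberculosis (UniProt P9WPC5 and UniProt P9WPC3). Tested at 50 µM. Direction is inferred from only a few compounds that gave an IC50; most scored high, so higher reads as stronger inhibition. Most other retested compounds had strongly negative values. Of about 69,000 compounds tested this way, about 10 (0.015%) reached 50% or more in at least one test.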
CoaBC: 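Coenzyme A biosynthesis protein CoaBC, Mycobacterium tuberculosis (UniProt P9WNZ1). Enzyme assay of CoaBC with a phosphate dye (Biomol Green) read at 650 nm. Concentration: 30 µM. Higher reads as stronger inhibition, judged from the few compounds that gave an IC50. Most strong results did not repeat in a second test. Size under these conditions: about 67,000 compounds, about 40 of them at 50% or above in at least one test.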
PfKRS1: 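Enzyme assay of the cytosolic lysyl-tRNA synthetase in 384-well plates, read by luminescence. Target: Lysine-tRNA ligase, Plasmodium falciparum 3D7 (UniProt Q8IDJ8). Concentration: 30 µM. Direction is inferred from only a few compounds that gave an IC50; most scored high, so higher reads as stronger inhibition. Size under these conditions: about 69,000 compounds, about 49 of them at 50% or above in at least one test.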
Leishmania in macrophages: 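Cell assay of Leishmania donovani living inside macrophages; the read-out is not stated. Tested at 30 µM. Direction is inferred from retests: higher values go with stronger inhibition. Of about 69,000 compounds tested this way, about 1,000 (1.5%) reached 50% or more in at least one test.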

{"compound": "Cc1ccc(CN(C)C(=O)CN2CCCCC2Cn2cncn2)o1", "stereo": "stereo not drawn", "ClpP1P2": -11.58, "CoaBC": 0, "PfKRS1": 8.298, "Leishmania in macrophages": 38.18}
{"compound": "O=c1ccc(-c2cccs2)nn1CN1CCc2ccccc2C1", "ClpP1P2": -12.85, "CoaBC": 1.768, "PfKRS1": 4.607, "Leishmania in macrophages": 15.91}
{"compound": "Cc1nn(C)c(N(C)C)c1CNCc1ccc(OCCN(C)C)cc1", "ClpP1P2": 7.942, "CoaBC": 0.2611, "PfKRS1": -0.4628, "Leishmania in macrophages": -1.494}
{"compound": "CCCS(=O)(=O)NCC1CCOc2ccccc2C1", "stereo": "stereo not drawn", "ClpP1P2": -16.48, "CoaBC": 5.455, "PfKRS1": -5.537, "Leishmania in macrophages": -10.58}
{"compound": "NC(=O)C1(CCCc2ccncc2)CCCN1", "stereo": "stereo not drawn", "ClpP1P2": -4.396, "CoaBC": 2.451, "PfKRS1": 7.71, "Leishmania in macrophages": -2.407}
{"compound": "Cn1nc(COc2cncnc2)c2c1CCN(Cc1ccccn1)C2.O=C(O)C(F)(F)F", "Leishmania in macrophages": 15.87}
{"compound": "COc1ccc(N(Cc2ccco2)C(=O)C2CCOC2)cc1F", "stereo": "stereo not drawn", "ClpP1P2": 4.306, "CoaBC": -2.851, "PfKRS1": 6.83, "Leishmania in macrophages": 6.99}
{"compound": "CCCNC(=O)C(C)NC(=O)Nc1ccccc1SC(F)F", "stereo": "stereo not drawn", "ClpP1P2": -6.879, "CoaBC": -0.2457, "PfKRS1": 1.889, "Leishmania in macrophages": -5.06}
{"compound": "COc1cccc2c(=O)n(Cc3cc(C4CC4)[nH]n3)cnc12", "ClpP1P2": -4.191, "CoaBC": 4.691, "PfKRS1": 2.934, "Leishmania in macrophages": 11.6}
{"compound": "Cc1cc(CNC(=O)Cc2c(C)nc3cc(=O)[nH]n3c2C)no1", "ClpP1P2": -20.54, "CoaBC": 4.859, "PfKRS1": -0.2935, "Leishmania in macrophages": 13.49}
{"compound": "Cc1noc(OCCOc2ccc(C#N)cc2)n1", "ClpP1P2": -4.344, "CoaBC": 0.2451, "PfKRS1": 9.358, "Leishmania in macrophages": 20.91}
{"compound": "Cc1cc(NC2CCN(CC3CCCO3)CC2)n2nc(C)c(C)c2n1", "stereo": "stereo not drawn", "ClpP1P2": 8.222, "CoaBC": 11.39, "PfKRS1": -1.43, "Leishmania in macrophages": -25.04}
{"compound": "Cc1cccc(S(=O)(=O)NC(=O)c2ccc3c(c2)nnn3C)c1", "ClpP1P2": -3.411, "CoaBC": -2.419, "PfKRS1": 4.239, "Leishmania in macrophages": 9.88}
{"compound": "Cc1ccc(N2C[C@H]3CCN(Cc4ccncc4)C[C@H]3C2)nn1", "ClpP1P2": -8.248, "CoaBC": 6.064, "PfKRS1": 1.616}
{"compound": "Cc1nc(C)c(C(=O)NCCNc2ncccc2C#N)s1", "ClpP1P2": 5.405, "CoaBC": 2.372, "PfKRS1": 1.576, "Leishmania in macrophages": 2.172}
{"compound": "Cc1cc(C2CCCN(CC(=O)Nc3nc4c(s3)CCC4)C2)n[nH]1", "stereo": "stereo not drawn", "ClpP1P2": -10.44, "CoaBC": 1.408, "PfKRS1": 1.976, "Leishmania in macrophages": 34.8}
{"compound": "CCOc1ccc(-c2ccnc(C3CC3)n2)cc1C(=O)O", "ClpP1P2": -5.177, "CoaBC": 9.921, "PfKRS1": 10.09, "Leishmania in macrophages": -13.71}
{"compound": "CC(C)(C)c1ccc2c(c1)CCN2C(=O)c1nc(=O)[nH][nH]1", "ClpP1P2": -9.469, "CoaBC": -3.586, "PfKRS1": 7.303, "Leishmania in macrophages": 13.2}
{"compound": "CCN1C(=O)C(C)(C)c2cc(NC(=O)c3ccco3)ccc21", "ClpP1P2": 2.308, "CoaBC": 0.9091, "PfKRS1": 3.108, "Leishmania in macrophages": 8.911}
{"compound": "COc1cccc(OCC(=O)N(C)c2cccnc2N(C)C)c1", "ClpP1P2": -10.14, "CoaBC": 12.4, "PfKRS1": 8.061, "Leishmania in macrophages": -13.63}